Many values rest on one well or one pass, so single values are uncertain.
Compound: [O-][N+](C(C1=C(C(O)=C2)NC(C(C=C3)=CC=C3Cl)C4C1C=CC4)=C2Cl)=O
Assay: melting temperature shift (compound 7 minus DMSO); higher = compound stabilises the protein
Conditions: 10 µM
Experimental: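 Thermal proteome profiling (TMT mass spectrometry) in intact DAOY medulloblastoma cells or DAOY lysates treated with 10 µM compound 7 or DMSO, heated at 10 temperatures from 40.5 to 73.8 °C for 3 min. Melting curves were fitted with the Bioconductor TPP package, and the melting point difference between compound and vehicle is reported per protein (single curve per condition).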

Sequences of proteins named here, by UniProt entry; tags and fusion partners are left off. A change or cut given only in a name is not applied to a line headed by its entry.
UniProt Q9UK41: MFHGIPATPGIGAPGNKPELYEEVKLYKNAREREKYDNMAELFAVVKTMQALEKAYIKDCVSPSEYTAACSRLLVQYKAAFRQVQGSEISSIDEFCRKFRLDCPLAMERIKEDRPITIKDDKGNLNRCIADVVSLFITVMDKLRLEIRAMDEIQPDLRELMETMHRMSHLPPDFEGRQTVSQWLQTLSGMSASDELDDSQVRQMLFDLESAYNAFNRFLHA
UniProt Q9Y2Q5, whole entry: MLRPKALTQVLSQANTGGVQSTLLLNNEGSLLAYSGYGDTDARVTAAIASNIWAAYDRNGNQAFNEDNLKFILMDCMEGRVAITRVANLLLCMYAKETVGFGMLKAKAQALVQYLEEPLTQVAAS
UniProt P33261, whole entry: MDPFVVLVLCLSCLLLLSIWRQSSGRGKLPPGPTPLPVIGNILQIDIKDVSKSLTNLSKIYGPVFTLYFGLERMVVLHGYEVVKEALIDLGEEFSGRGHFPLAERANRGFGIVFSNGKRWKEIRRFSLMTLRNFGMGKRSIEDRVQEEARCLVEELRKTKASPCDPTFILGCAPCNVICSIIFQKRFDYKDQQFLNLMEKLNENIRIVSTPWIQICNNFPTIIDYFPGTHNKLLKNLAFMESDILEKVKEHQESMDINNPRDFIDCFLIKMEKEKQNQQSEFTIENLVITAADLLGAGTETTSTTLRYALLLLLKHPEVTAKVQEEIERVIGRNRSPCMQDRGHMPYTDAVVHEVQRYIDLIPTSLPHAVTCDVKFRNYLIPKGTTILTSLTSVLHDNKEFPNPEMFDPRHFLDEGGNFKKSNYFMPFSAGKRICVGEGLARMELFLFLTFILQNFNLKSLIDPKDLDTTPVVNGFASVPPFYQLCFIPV
UniProt P30041: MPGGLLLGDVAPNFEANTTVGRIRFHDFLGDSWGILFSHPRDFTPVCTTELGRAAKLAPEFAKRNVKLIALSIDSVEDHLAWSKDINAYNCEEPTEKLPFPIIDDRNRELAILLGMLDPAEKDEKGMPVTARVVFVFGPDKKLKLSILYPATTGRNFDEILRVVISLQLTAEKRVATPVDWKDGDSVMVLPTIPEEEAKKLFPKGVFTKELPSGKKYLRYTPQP
UniProt Q9P2B4: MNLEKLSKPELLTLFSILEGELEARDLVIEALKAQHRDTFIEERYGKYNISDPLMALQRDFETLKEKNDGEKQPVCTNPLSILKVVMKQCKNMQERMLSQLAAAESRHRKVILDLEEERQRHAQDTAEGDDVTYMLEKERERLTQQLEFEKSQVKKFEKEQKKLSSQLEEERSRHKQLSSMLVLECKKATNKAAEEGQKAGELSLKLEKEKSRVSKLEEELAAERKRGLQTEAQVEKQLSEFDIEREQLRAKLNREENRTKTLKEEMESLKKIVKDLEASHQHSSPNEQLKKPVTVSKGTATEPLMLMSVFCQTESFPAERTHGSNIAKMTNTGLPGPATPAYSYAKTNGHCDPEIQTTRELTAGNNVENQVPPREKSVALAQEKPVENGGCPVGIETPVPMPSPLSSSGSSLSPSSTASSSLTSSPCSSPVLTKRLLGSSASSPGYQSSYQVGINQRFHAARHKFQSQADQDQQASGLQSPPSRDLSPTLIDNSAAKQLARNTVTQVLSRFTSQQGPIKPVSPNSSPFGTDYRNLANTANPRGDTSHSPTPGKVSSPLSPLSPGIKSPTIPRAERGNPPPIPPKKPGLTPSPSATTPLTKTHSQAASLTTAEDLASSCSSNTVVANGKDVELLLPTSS
UniProt Q96BZ9: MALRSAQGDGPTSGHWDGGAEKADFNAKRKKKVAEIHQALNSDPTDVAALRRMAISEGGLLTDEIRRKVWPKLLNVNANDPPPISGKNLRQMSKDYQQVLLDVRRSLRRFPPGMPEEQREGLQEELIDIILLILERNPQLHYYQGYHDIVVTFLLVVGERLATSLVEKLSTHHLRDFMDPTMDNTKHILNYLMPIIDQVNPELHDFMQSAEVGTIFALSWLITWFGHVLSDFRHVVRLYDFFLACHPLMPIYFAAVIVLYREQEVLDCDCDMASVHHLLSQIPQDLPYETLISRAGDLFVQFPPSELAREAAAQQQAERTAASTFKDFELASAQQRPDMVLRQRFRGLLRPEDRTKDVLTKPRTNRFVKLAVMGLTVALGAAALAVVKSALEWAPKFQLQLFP
UniProt O00754: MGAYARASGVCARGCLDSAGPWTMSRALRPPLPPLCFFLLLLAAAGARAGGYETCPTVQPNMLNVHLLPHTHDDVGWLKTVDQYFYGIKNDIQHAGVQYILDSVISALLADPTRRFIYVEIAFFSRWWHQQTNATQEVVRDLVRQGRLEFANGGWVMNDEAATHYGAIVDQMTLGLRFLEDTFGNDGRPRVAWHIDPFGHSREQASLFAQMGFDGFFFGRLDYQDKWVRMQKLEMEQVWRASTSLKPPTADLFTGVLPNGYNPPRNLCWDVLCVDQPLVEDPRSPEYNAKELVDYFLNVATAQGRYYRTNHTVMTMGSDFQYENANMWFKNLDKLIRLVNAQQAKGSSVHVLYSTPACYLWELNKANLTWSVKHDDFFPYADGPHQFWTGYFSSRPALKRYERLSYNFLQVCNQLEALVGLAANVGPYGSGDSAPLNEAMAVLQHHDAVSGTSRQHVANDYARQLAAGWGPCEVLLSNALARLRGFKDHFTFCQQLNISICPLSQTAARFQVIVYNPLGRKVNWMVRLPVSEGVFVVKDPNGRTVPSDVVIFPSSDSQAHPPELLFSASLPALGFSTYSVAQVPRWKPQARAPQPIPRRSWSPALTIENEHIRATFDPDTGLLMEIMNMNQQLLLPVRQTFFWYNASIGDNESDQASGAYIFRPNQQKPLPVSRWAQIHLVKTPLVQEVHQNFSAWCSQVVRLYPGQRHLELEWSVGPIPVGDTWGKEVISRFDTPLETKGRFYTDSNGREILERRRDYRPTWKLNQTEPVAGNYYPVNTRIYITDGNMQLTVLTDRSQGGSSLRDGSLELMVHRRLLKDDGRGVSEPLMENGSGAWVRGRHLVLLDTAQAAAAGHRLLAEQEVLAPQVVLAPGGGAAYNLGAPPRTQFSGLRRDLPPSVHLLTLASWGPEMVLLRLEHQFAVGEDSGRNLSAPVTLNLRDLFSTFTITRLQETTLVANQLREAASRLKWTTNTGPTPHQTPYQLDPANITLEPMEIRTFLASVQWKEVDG
UniProt P62995: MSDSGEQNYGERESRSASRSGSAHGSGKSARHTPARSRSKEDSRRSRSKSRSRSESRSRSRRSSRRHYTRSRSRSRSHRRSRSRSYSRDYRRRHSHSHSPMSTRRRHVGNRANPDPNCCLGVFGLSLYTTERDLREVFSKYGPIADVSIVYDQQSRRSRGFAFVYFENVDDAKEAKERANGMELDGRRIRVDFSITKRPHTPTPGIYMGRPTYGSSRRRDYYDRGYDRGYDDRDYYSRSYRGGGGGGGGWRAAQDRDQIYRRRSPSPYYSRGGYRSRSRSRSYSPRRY
UniProt P16930: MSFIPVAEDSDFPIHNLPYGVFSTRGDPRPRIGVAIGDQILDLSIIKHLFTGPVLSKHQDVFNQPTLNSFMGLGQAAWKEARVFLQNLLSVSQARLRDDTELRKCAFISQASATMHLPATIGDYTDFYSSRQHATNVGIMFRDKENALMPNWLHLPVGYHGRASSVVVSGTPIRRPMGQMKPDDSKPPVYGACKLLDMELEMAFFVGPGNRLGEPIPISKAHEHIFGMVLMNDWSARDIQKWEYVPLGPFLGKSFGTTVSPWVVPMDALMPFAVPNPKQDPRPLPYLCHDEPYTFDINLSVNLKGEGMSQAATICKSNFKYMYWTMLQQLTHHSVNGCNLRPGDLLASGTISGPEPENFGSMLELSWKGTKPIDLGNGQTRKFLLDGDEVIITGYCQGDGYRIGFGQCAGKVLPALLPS
UniProt P11047: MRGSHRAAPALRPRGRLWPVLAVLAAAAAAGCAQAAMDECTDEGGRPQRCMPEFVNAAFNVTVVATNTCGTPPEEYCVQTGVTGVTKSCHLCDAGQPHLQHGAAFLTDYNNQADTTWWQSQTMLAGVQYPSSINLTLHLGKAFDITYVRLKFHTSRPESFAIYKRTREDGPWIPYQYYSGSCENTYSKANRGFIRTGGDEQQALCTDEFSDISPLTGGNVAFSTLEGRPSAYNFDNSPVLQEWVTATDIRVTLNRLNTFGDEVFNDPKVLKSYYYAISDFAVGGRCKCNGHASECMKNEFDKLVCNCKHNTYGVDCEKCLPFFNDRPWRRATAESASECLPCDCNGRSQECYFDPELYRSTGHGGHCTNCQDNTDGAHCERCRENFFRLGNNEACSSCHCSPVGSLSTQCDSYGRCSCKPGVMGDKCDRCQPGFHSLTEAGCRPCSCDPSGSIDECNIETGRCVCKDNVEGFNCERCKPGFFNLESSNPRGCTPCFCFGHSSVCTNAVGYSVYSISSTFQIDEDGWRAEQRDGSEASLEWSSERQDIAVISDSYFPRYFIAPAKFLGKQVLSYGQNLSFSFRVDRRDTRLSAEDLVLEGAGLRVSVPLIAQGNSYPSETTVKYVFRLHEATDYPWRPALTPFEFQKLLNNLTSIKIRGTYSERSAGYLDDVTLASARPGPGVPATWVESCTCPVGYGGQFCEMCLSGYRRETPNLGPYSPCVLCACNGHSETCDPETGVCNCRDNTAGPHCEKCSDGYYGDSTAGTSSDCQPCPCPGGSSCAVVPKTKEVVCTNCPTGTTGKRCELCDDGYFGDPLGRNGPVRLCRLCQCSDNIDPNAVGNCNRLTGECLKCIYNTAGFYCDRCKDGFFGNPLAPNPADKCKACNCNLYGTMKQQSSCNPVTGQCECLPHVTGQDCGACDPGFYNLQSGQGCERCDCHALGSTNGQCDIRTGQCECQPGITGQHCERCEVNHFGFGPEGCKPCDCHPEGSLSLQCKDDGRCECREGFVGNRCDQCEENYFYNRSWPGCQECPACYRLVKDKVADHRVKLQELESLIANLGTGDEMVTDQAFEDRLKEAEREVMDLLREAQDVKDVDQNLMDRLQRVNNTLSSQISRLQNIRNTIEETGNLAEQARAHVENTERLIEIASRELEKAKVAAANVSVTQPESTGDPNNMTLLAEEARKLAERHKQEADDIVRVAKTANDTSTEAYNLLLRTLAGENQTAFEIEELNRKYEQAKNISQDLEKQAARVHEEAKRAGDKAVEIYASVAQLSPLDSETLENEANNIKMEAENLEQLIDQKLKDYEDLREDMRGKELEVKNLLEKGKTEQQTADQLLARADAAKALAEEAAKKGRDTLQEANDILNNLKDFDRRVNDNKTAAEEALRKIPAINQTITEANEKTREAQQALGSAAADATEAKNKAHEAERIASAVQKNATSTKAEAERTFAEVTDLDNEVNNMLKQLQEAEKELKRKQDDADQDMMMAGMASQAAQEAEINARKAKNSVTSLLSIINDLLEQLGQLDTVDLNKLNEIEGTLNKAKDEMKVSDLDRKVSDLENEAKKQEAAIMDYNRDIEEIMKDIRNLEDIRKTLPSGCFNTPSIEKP
UniProt Q96BR5: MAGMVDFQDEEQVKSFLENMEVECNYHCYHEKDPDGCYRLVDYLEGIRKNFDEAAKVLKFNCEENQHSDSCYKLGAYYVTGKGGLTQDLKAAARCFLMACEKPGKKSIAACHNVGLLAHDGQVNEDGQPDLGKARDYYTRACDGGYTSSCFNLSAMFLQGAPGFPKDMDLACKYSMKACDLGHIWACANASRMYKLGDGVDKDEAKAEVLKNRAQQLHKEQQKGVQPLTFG

[1] = system: DAOY cell lysate, treatment time: 20 min, 4 °C
[2] = system: intact DAOY cells, treatment time: 90 min, 37 °C

Row | Target | melting temperature shift [1] [°C] | melting temperature shift [2] [°C]
1 | PABPC4 (UniProt Q13310) | -0.157 | -0.0152
2 | CTPS1 (UniProt P17812) | -0.492 | -0.2
3 | GPRC5A (UniProt Q8NFJ5) | 2.79 | 
4 | TBC1D15 (UniProt Q8TC07) | -0.506 | 0.199
5 | CORO7 (UniProt P57737) | -0.874 | 0.771
6 | VPS28 (UniProt Q9UK41) | -0.719 | -0.489
7 | LAMTOR2 (UniProt Q9Y2Q5) | 4.42 | 2.49
8 | UniProt P28300 | 1.29 | 0.0768
9 | DOCK10 (UniProt Q96BY6) | 0.146 | 0.408
10 | PTPN23 (UniProt Q9H3S7) | 0.174 | 1.19
11 | UniProt Q15843 | -3.65 | 0.941
12 | RAB6A (UniProt P20340) | 1.85 | 0.0618
13 | CYP2C19 (UniProt P33261) |  | 0.513
14 | PRDX6 (UniProt P30041) | -0.349 | -0.195
15 | UniProt Q69YH5 | 0.178 | 
16 | B4GAT1 (UniProt O43505) | 1.27 | 
17 | NRAS (UniProt P01111) | 1.07 | 1.22
18 | UniProt Q9Y5E7 | -1.07 | 
19 | CTTNBP2NL (UniProt Q9P2B4) | -0.457 | 0.834

Row | Target | melting temperature shift [1] [°C] | melting temperature shift [2] [°C]
20 | UniProt Q96BZ9 | -0.0922 | 
21 | ALG8 (UniProt Q9BVK2) | 0.732 | 
22 | UniProt Q96L91 | -0.149 | 0.00772
23 | PPP2CB (UniProt P62714) | 0.598 | 0.121
24 | UniProt Q9Y519 |  | -0.615
25 | MAN2B1 (UniProt O00754) | 1.25 | 
26 | HMCES (UniProt Q96FZ2) | -1.03 | -1.38
27 | UniProt Q96AB6 | 0.419 | 
28 | HDAC3 (UniProt O15379) | -0.219 | -0.233
29 | MIOS (UniProt Q9NXC5) | 0.141 | 0.309
30 | BCL3 (UniProt P20749) |  | -1.29
31 | TPP2 (UniProt P29144) | -0.235 | -0.425
32 | UniProt Q2PPJ7 |  | -0.283
33 | TRA2B (UniProt P62995) | 0.962 | 0.844
34 | NONO (UniProt Q15233) | 0.77 | 0.467
35 | FAH (UniProt P16930) | -1.77 | 
36 | UniProt Q92901 |  | -0.587
37 | LAMC1 (UniProt P11047) | 1.15 | 0.545
38 | SLC20A1 (UniProt Q8WUM9) | 6 | 

Row | Target | melting temperature shift [1] [°C] | melting temperature shift [2] [°C]
39 | CDKAL1 (UniProt Q5VV42) | 1.74 | -0.856
40 | SURF2 (UniProt Q15527) | -0.556 | -0.772
41 | CAMK1D (UniProt Q8IU85) | -0.0187 | -0.58
42 | SKIV2L (UniProt Q15477) | -0.0582 | 
43 | UniProt Q9P1F3 | -3.07 | -0.554
44 | RMDN1 (UniProt Q96DB5) | -0.487 | -0.163
45 | GCLM (UniProt P48507) | -0.299 | 0.157
46 | ATXN10 (UniProt Q9UBB4) | -0.258 | -0.933
47 | PIN1 (UniProt Q13526) | -1.01 | -0.428
48 | CTSZ (UniProt Q9UBR2) | -0.67 | -3.78
49 | SLC9A1 (UniProt P19634) | -0.599 | 
50 | TIFA (UniProt Q96CG3) | -0.21 | 
51 | COA7 (UniProt Q96BR5) | 0.394 | -1.11
52 | RACGAP1 (UniProt Q9H0H5) | -0.206 | 0.232
53 | UPF2 (UniProt Q9HAU5) | 0.614 | -0.293
54 | CHCHD3 (UniProt Q9NX63) | 2.91 | -0.187
55 | UniProt P17252 | -0.437 | -2.04
56 | NCOR2 (UniProt Q9Y618) | -0.441 | -0.865

Nothing new here: entries from further up.
Row | Target | melting temperature shift [1] [°C] | melting temperature shift [2] [°C]
53 | UPF2 (UniProt Q9HAU5) | 0.614 | -0.293
54 | CHCHD3 (UniProt Q9NX63) | 2.91 | -0.187
55 | UniProt P17252 | -0.437 | -2.04

Reference: the supplement of paper PMC10060354, “Discovery of a small molecule ligand of FRS2 that inhibits invasion and tumor growth” (Cellular Oncology, 2022)
